PubChem BioAssay AID652272 | Drosophila RNAi Screening Center, 2013
In all, the deposit lists about 21,000 reagents; below is a random part of those that have a named target and a result. Over the whole deposit, 503 (2.4%) got an active call. 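Raw plate light values, not normalised; calls rest on replicate z-scores that were not deposited; hits include reporter decreases as well as increases.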 The record does not give: the amount of reagent, the time to read-out.

- Purpose: 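Genes whose knock-down decreases or increases Hedgehog reporter output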 (primary screen)
- Cell system: Drosophila clone 8 (Cl8) cells
- Reagent: long dsRNA against Drosophila genes
- Measured: 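Firefly light from a Hedgehog-responsive ptc promoter reporter and Renilla reference light, both read on a plate reader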
- Direction: firefly Hh reporter signal: higher = more ptc reporter light; Renilla reference signal: higher = more Renilla control light
- Hit rule: 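Hit when the z-score averaged over two replicates is under -2 or over +3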
- Meaning of the calls: active = hit: reporter lowered or raised; inactive = not a hit

gene	PubChem SID	firefly Hh reporter signal, replicate 1	firefly Hh reporter signal, replicate 2	firefly Hh reporter signal, replicate 3	Renilla reference signal, replicate 1	Renilla reference signal, replicate 2	Call
tefu (GeneID 41839)	SID104195852	58225	75180		2280	2195	inactive
Cpr64Aa (GeneID 38508)	SID104188252	71520	50955		2072	3698	inactive
Boh1 (GeneID 338395)	SID104194279	1.27e5	1.45e5		2760	3512	inactive
dcma (GeneID 5740672)	SID104180038	6.47e5	2.16e5		33381	10005	inactive
dcma (GeneID 5740672)	SID104180130	1.11e5	1.03e5		2433	7476	inactive
unc (GeneID 33093)	SID104200303	1.36e5	2.36e5		5361	10476	inactive
CG11723 (GeneID 33388)	SID104180116	1.30e5	84656		5168	2705	inactive
wls (GeneID 39259)	SID104190397	80627	46104		2772	1968	inactive
MFS18 (GeneID 33650)	SID104180244	1.17e5	76742		6128	3324	inactive
Naam (GeneID 42348)	SID104196044	1.05e6	1.96e5		46963	5905	inactive
dpr1 (GeneID 2768858)	SID104185698	97346	1.51e5		3338	7888	inactive
dpr1 (GeneID 2768858)	SID104186191	1.15e5	57778		4243	4240	inactive
CG42700 (GeneID 36330)	SID104186084	21462	6502		946	800	active
CG42700 (GeneID 36330)	SID104186085	97808	37533		2412	3194	inactive
SelR (GeneID 41309)	SID104195863	75728	1.25e5		2640	3579	inactive
inaF-C (GeneID 5740497)	SID104198694	4.89e5	1.75e5		25204	3810	inactive
SCOT (GeneID 38261)	SID104187978	94554	79440		4348	3212	inactive
Ugt50B3 (GeneID 246614)	SID104184570	2.05e5	3.00e5		5078	13312	inactive
Ugt50B3 (GeneID 246614)	SID104184571	2.37e5	3.13e5		5772	14426	inactive
CG3088 (GeneID 39115)	SID104190144	1.20e5	73271		4616	3187	inactive
CG14960 (GeneID 38403)	SID104188211	70770	61896		2875	3794	inactive
RpL13A (GeneID 40687)	SID104192057	32400	44082		3467	3648	active
Pdk1 (GeneID 38017)	SID104188474	71707	29250		2151	1875	inactive
Targ3 (GeneID 5740205)	SID104191263	3.15e5			7113		inactive
Tomosyn (GeneID 32217)	SID104199157	50896	50146		1965	1440	inactive
Tomosyn (GeneID 32217)	SID104199484	1.65e5	7.39e5	3.76e5	6530	4445	inactive
Tomosyn (GeneID 32217)	SID104199574	84448	69717		2119	2000	inactive
Tomosyn (GeneID 32217)	SID104199634	1.47e5	6.33e5	3.82e5	5402	4717	inactive
CG4301 (GeneID 32610)	SID104199678	45293	2.47e5		1194	9030	inactive
chic (GeneID 33834)	SID104183299	1.43e5	55508		4496	6720	inactive
CG8097 (GeneID 32495)	SID104199871	61446	1.47e5		1825	6018	inactive
Cyp4ac1 (GeneID 33754)	SID104183094	1.36e5	1.02e5		5549	3960	inactive
eIF3f1 (GeneID 40587)	SID104192120	56668	90112		1740	2512	inactive
SA1 (GeneID 33974)	SID104183216	88710	54464		4041	2172	inactive
IA-2 (GeneID 33277)	SID104180096	1.24e5	6.30e5	87280	5750	3304	inactive
IA-2 (GeneID 33277)	SID104180444	91651	1.05e5		4256	5202	inactive
CG6790 (GeneID 41388)	SID104195909	1.19e5	1.18e5		5532	4608	inactive
CG8128 (GeneID 32504)	SID104199876	1.14e5	1.24e5		2658	3261	inactive
CG10863 (GeneID 38463)	SID104187937	1.24e5	1.38e5		4340	4211	inactive
CG6287 (GeneID 34554)	SID104182739	74253	51042		3181	2080	inactive
Creld (GeneID 33166)	SID104180100	80629	77937		1751	1908	inactive
CG4374 (GeneID 42767)	SID104195362	7.18e5	1.35e5		35235	3389	inactive
Fs (GeneID 2768836)	SID104186050	1.06e5	1.06e5		4585	3927	inactive
Fs (GeneID 2768836)	SID104186051	63729	44932		1777	3738	inactive
CG8562 (GeneID 38828)	SID104190787	39136	42426		6529	3429	inactive
Cdk8 (GeneID 39157)	SID104190905	77222	35668		4055	1338	inactive
CR30029 (GeneID 5740197)	SID104186516	1.15e5	66091		2785	5591	inactive
CG4483 (GeneID 39057)	SID104190218	5.63e5	79688		2667	2667	inactive
Zip42C.2 (GeneID 35580)	SID104184796	1.59e5	71533		3424	3666	inactive
loh (GeneID 34435)	SID104180914	4.96e5	1.93e5		26775	8385	inactive
loh (GeneID 34435)	SID104182735	92117	73744		2548	6253	inactive
CG13062 (GeneID 39799)	SID104189737	1.26e5			1656	3781	inactive
CG34434 (GeneID 31472)	SID104197926	91579	3.05e5		2693	8409	inactive
CG18131 (GeneID 33331)	SID104180309	1.11e5	56281		2976	1601	inactive
Optix (GeneID 44108)	SID104184870	7.91e5	1.44e5	1.89e5	7158	10608	inactive
Optix (GeneID 44108)	SID104187276	85606	51771		3977	2032	inactive
CG7430 (GeneID 39988)	SID104190637	1.14e5	52246		4441	2288	inactive

Single entries from the entries so far:
Result for Boh1 (GeneID 338395) [SID104194279] in “Call”: inactive
Result for CG6790 (GeneID 41388) [SID104195909] in “firefly Hh reporter signal, replicate 2”: 1.18e5
For “firefly Hh reporter signal, replicate 2”, tefu (GeneID 41839) [SID104195852] has 75180
Under “firefly Hh reporter signal, replicate 1”, SelR (GeneID 41309) [SID104195863] is entered as 75728
